The supplement of paper PMC7666118
The other results are listed elsewhere or left out.

Chains of the proteins cited; added tags and fusions are not shown. Lines headed by an entry give the natural chain unless they say otherwise; changes in a name come on top.
UniProt P09429: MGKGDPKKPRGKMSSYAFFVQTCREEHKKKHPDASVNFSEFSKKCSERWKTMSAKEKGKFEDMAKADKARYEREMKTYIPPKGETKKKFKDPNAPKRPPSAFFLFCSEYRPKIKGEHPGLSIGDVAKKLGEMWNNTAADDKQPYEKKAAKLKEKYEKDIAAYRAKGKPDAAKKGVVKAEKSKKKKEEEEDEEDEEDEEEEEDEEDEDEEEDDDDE
UniProt Q9HCL2: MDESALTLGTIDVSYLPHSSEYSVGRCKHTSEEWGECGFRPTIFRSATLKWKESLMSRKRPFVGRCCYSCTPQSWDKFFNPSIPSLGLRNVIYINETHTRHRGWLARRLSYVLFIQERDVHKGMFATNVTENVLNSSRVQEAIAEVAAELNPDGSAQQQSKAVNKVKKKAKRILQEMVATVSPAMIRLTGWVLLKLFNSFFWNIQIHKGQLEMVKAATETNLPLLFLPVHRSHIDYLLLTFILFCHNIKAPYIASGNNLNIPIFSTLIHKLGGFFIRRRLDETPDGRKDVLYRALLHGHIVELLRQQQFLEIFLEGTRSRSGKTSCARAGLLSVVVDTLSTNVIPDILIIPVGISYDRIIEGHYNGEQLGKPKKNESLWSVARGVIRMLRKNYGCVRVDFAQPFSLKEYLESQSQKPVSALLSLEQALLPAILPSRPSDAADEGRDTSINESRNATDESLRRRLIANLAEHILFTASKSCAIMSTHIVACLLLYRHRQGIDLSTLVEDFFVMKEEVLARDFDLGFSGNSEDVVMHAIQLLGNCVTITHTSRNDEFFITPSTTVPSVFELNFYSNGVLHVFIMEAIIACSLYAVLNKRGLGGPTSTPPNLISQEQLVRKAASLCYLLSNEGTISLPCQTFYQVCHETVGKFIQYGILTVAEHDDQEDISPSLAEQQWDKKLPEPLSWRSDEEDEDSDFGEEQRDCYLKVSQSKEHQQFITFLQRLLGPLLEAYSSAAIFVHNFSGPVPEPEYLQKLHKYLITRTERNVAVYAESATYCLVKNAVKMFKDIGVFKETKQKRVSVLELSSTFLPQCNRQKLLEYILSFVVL
UniProt P48723: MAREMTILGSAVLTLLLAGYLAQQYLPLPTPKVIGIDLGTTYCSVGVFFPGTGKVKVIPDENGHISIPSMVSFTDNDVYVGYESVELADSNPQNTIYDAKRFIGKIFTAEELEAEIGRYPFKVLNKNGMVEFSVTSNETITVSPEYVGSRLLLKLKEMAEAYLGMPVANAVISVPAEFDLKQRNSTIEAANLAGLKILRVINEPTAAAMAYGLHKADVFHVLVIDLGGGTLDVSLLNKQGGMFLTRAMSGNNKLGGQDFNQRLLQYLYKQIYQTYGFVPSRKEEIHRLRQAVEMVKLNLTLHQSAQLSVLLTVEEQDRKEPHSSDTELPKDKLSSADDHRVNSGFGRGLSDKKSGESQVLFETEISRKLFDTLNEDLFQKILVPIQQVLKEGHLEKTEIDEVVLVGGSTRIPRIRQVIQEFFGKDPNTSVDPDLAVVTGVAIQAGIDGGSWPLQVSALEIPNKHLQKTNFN
UniProt Q9Y3E0: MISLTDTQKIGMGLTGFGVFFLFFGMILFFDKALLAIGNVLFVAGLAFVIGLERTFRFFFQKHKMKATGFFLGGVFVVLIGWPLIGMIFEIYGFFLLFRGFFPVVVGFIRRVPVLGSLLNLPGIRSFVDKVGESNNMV
UniProt P50747: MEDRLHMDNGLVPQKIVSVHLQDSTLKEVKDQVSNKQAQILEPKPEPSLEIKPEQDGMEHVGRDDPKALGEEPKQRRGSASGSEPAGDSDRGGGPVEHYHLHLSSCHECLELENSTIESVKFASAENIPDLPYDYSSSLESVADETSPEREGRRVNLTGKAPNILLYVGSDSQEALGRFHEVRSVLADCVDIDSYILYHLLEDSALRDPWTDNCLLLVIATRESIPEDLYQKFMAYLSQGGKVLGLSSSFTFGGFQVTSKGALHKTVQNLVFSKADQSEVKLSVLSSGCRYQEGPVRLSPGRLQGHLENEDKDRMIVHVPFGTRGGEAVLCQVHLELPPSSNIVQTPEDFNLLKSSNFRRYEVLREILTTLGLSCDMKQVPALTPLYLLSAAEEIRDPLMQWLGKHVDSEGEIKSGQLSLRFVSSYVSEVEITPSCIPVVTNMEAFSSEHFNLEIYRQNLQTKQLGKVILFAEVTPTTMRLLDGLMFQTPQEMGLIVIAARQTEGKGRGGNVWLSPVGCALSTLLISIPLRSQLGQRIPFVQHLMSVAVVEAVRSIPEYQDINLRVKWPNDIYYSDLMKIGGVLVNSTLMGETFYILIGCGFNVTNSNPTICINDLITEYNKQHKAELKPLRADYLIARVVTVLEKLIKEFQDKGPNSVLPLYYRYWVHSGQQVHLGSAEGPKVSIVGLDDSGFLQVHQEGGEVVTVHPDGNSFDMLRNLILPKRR
UniProt Q9UJ83: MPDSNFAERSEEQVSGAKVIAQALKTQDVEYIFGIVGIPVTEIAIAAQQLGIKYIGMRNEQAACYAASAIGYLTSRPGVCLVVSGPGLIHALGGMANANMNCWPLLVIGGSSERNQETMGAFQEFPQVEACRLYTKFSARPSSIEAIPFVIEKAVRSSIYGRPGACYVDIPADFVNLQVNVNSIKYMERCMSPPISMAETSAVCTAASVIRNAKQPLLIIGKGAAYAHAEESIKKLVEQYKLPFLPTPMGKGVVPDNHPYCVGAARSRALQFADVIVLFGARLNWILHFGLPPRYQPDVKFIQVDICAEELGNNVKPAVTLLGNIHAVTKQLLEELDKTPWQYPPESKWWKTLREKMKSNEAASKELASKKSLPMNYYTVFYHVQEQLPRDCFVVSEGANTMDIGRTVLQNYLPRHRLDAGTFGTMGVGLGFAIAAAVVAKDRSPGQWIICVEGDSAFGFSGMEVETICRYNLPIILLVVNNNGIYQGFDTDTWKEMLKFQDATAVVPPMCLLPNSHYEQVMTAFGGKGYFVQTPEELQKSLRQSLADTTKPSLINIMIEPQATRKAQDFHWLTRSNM
UniProt P52657, whole entry: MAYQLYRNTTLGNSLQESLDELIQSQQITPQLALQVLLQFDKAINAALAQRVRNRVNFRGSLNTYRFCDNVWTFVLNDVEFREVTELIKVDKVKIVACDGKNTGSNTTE
UniProt Q86SQ4: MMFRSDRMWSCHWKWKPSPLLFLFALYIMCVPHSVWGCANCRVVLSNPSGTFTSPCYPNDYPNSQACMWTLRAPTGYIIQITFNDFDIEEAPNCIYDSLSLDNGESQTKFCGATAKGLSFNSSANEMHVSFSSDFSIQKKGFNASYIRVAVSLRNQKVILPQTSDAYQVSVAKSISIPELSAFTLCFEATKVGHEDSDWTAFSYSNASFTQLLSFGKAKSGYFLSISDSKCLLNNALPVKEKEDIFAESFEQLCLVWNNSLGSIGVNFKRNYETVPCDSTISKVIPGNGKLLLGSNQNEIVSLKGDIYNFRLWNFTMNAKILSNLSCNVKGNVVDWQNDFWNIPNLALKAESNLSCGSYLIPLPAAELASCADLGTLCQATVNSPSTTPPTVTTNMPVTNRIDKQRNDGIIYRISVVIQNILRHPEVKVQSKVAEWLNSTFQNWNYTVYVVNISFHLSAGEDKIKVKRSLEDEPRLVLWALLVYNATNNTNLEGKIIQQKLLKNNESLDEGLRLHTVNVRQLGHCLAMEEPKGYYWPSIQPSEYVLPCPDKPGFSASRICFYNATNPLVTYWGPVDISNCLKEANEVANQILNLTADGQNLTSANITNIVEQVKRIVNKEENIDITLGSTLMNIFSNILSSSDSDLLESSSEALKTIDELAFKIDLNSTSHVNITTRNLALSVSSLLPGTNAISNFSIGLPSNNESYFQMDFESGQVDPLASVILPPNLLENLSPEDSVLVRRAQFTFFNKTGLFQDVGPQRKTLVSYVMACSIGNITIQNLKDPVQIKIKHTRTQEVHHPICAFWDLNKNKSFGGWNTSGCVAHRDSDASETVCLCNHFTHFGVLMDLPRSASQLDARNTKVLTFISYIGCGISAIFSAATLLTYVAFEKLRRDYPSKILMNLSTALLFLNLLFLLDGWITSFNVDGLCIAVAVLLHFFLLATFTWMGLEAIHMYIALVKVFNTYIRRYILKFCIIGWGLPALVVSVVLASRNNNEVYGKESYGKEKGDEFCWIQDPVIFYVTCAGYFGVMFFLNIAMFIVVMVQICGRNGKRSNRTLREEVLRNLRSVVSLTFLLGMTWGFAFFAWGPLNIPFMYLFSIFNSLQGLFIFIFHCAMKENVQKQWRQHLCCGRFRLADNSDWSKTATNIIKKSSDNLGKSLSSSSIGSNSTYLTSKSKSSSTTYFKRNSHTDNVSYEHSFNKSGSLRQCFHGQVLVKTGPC
UniProt Q9NZL4: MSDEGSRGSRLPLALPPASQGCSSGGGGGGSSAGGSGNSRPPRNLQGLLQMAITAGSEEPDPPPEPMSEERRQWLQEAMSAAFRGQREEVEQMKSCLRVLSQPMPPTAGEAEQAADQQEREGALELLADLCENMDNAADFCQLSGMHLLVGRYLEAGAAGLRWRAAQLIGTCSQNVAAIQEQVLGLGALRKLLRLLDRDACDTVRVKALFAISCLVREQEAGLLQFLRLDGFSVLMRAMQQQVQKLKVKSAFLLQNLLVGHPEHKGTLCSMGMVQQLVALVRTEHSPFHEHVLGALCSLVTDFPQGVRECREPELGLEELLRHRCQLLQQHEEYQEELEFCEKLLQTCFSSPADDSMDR
UniProt Q92664: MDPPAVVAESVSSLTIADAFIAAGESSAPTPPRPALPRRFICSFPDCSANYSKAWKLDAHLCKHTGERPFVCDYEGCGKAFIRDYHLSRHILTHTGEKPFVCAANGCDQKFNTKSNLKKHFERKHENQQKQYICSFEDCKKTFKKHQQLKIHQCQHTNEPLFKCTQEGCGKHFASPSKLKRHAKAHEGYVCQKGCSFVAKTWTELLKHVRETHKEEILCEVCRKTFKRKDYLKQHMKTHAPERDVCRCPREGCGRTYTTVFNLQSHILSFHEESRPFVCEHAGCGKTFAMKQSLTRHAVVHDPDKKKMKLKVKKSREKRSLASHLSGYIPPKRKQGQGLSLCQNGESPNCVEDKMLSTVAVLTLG
UniProt P34932: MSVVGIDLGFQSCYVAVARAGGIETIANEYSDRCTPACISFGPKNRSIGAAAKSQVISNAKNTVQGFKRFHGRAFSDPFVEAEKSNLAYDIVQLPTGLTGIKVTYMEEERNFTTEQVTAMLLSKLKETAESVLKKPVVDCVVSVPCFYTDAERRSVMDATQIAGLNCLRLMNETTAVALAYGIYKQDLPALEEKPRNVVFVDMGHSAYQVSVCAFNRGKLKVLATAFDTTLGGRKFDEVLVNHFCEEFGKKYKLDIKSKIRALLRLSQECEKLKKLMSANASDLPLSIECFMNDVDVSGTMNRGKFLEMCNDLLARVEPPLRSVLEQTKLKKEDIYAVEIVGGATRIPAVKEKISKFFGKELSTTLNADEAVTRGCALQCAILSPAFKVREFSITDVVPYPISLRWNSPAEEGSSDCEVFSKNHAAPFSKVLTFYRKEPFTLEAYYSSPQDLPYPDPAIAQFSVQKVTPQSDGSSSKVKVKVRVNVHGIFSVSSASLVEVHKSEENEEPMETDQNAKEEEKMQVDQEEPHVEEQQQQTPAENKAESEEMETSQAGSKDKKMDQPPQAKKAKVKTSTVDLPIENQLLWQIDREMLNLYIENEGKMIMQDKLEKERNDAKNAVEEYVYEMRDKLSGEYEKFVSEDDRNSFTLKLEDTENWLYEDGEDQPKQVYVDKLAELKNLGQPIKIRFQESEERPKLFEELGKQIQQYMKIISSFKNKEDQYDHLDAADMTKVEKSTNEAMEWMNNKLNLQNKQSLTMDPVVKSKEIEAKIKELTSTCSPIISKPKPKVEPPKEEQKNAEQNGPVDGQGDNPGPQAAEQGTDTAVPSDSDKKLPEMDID
UniProt P11142, whole entry, looked up: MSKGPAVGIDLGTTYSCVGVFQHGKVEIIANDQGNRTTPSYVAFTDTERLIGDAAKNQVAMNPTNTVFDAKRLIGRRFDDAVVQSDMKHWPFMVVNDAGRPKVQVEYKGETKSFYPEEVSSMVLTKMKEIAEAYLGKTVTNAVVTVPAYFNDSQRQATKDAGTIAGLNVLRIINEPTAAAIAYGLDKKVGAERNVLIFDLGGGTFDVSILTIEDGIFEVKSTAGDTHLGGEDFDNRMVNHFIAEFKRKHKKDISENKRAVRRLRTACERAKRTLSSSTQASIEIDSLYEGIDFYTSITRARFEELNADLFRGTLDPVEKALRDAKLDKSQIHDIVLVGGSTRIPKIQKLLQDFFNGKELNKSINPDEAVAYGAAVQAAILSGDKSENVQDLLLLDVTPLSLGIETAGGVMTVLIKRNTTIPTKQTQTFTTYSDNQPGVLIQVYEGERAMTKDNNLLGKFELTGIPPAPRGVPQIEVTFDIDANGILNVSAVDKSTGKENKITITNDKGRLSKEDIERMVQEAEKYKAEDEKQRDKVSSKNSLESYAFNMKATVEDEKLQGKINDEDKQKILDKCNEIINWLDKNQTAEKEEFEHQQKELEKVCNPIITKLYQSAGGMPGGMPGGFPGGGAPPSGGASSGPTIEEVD

Compound: COc1ccc(Cn2ccc3cc(C)c(C(=O)NO)cc32)cc1
Assay: dose-dependent thermal stabilisation call (2D-TPP, DLPTP, 10% FDR) (binary (1 = stabilised)); higher = stabilised by the compound
Details: system: HL-60 intact cells; concentration range 0.04-10 µM
Procedure: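 2D thermal proteome profiling in intact HL-60 cells treated with BRD-3811 (0, 0.04, 0.29, 2, 10 uM) for 90 min at 37 C, then heated 3 min at one of 12 temperatures (42-63.9 C). Soluble protein was quantified by TMT10 MS. The value is the DLPTP call of the paper: dose-dependent thermal stabilisation over all temperatures at 10% FDR (F-test of a dose-response against a flat model); one experiment, one call per tested protein.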

Target | dose-dependent thermal stabilisation call
GPSN2 (UniProt Q9NZ01) | inactive: 0
HMGB1 (UniProt P09429) | inactive: 0
GOT2 (UniProt P00505) | inactive: 0
GNL3L (UniProt Q9NVN8) | inactive: 0
GPAM (UniProt Q9HCL2) | inactive: 0
HNRNPUL1 (UniProt Q9BUJ2) | inactive: 0
HSD17B4 (UniProt P51659) | inactive: 0
HSPA13 (UniProt P48723) | inactive: 0
HECTD1 (UniProt Q9ULT8) | inactive: 0
GOLT1B (UniProt Q9Y3E0) | inactive: 0
GTPBP1 (UniProt O00178) | inactive: 0
GORASP2 (UniProt Q9H8Y8) | inactive: 0
HLCS (UniProt P50747) | inactive: 0
HACL1 (UniProt Q9UJ83) | inactive: 0
GTF2A2 (UniProt P52657) | inactive: 0
GPR126 (UniProt Q86SQ4) | inactive: 0
GSTCD (UniProt Q8NEC7) | inactive: 0
HSPBP1 (UniProt Q9NZL4) | inactive: 0

Target | dose-dependent thermal stabilisation call
HGF (UniProt P14210) | inactive: 0
HSD17B12 (UniProt Q53GQ0) | inactive: 0
HMHA1 (UniProt Q92619) | inactive: 0
HNRPLL (UniProt Q8WVV9) | inactive: 0
HNRNPH2 (UniProt P55795) | inactive: 0
HERPUD1 (UniProt Q15011) | inactive: 0
GPR89A (UniProt B7ZAQ6) | inactive: 0
HNRPDL (UniProt O14979) | inactive: 0
HCCA2 | inactive: 0
GTF3A (UniProt Q92664) | inactive: 0
HSPA4 (UniProt P34932) | inactive: 0
HEATR1 (UniProt Q9H583) | inactive: 0
HAGH (UniProt Q16775) | inactive: 0
HOMER3 (UniProt Q9NSC5) | inactive: 0
HNRPA1L-2 | inactive: 0
HSPA8 (UniProt P11142) | active: 1
HSD17B7 (UniProt P56937) | inactive: 0
GTSE1 (UniProt Q9NYZ3) | inactive: 0

Individual results from the list.
Entry of GPR126 (UniProt Q86SQ4) under dose-dependent thermal stabilisation call: inactive: 0
Entry of HSPA13 (UniProt P48723) under dose-dependent thermal stabilisation call: inactive: 0
